Earlier results as cited in patent US8962603B2, “Method for post coital contraception in overweight or obese female subjects using ulipristal acetate” (Laboratoire HRA-Pharma, priority 2010, dated 2015).
Like-named read-outs stand apart in the source and are kept apart here. At least one compound was matched to its structure with a doubt left.

Tested on: women
Settings: cited from earlier work; for Reported pregnancy rate: 1.5 mg levonorgestrel

Q: For `C#C[C@]1(O)CC[C@H]2[C@@H]3CCC4=CC(=O)CC[C@@H]4[C@H]3CC[C@@]21CC` [Levonorgestrel, levonorgestrel], which “efficacy versus combined estrogen-progestin preparations” value (0.75 mg levonorgestrel twice, randomized clinical trials) is on record?
A: as effective as combined estrogen-progestin preparations

Q: What about the Reported pregnancy rate (intake 0 to 24 hrs after intercourse) of the same molecule?
A: approximately 1.5%

Q: And the Reported pregnancy rate (intake 48-72 hrs after intercourse)?
A: ~2.6%
